Publication doi:10.1101/854497 (bioRxiv, 2020)
No constants are given. Whether binding was seen depends on the method and setting. A result given as binding can be weak or reduced; the word gives no strength. Where a sequence is shown, tags or fusion partners need not be part of it.

Target: T1, Pex17p_(167-199) Gal4p fusion (yeast) (UniProt P40155)
T1 sequence: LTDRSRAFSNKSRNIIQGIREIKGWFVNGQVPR
Experiment: two-hybrid

- binding: binds
Substance: second putative coiled-coil domain of Pex14p plus a C-terminal portion, Gal4p fusion (yeast) (domain or fragment)
